± gives the standard deviation of the averaged measurements. The reference is the same well before dosing, and untreated signal decays as well.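 Fibroblast labels denote human fibroblasts, mainly primary ones from uterus (C12385, HUF), lung (H6013), bone (Hs27A), adrenal (HADF) and skin (WS1), plus mammary HMF and breast cancer-associated Hs343T. Cancer cells are basal-like or mesenchymal-like triple-negative breast cancer lines. A hit is a response shift exceeding 3x replicate standard deviation. The tissue of the other fibroblasts is not given here.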
Tested on: MDAMB231
Experiment: relative JC-1 red fluorescence (viability) vs pre-drug, coculture with fibroblast (fraction); higher = more viable cancer cells
Description: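 JC-1 labelled TNBC cells cocultured 1:1 (1,500 cells each) with CellTrace Violet stained primary or stromal fibroblasts in 384-well plates in FluoroBrite medium, treated with one of 42 anticancer drugs at 0.1, 1, 10 or 100 uM. JC-1 red fluorescence (mitochondrial integrity in cancer cells only) was read by plate reader every 8 h for 72 h. Values are normalised to each well's pre-drug value. The stock of one drug was tenfold lower, so its dose labels may be too high.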

C=C1C[C@@H]2[C@H](CC[C@]3(C)C(=O)CC[C@@H]23)[C@@]2(C)C=CC(=O)C=C12 [Exemestane]
relative JC-1 red fluorescence
Settings | 8 h | 16 h | 24 h | 32 h | 40 h | 48 h | 56 h | 64 h | 72 h
10 µM, coculture fibroblast: C12385 | 0.795 ± 0.014 | 0.778 ± 0.014 | 0.713 ± 0.057 | 0.721 ± 0.018 | 0.681 ± 0.033 | 0.665 ± 0.034 | 0.624 ± 0.035 | 0.603 ± 0.042 | 0.573 ± 0.036
10 µM, coculture fibroblast: H6013 | 0.903 ± 0.013 | 0.888 ± 0.022 | 0.876 ± 0.015 | 0.88 ± 0.022 | 0.856 ± 0.033 | 0.829 ± 0.015 | 0.827 ± 0.019 | 0.797 ± 0.029 | 0.77 ± 0.029
10 µM, coculture fibroblast: H6019 | 0.808 ± 0.026 | 0.762 ± 0.063 | 0.704 ± 0.015 | 0.695 ± 0.038 | 0.648 ± 0.019 | 0.636 ± 0.029 | 0.594 ± 0.02 | 0.585 ± 0.012 | 0.54 ± 0.0069
10 µM, coculture fibroblast: H6076 | 0.929 ± 0.0098 | 0.861 ± 0.022 | 0.839 ± 0.035 | 0.841 ± 0.053 | 0.819 ± 0.059 | 0.807 ± 0.056 | 0.786 ± 0.056 | 0.764 ± 0.061 | 0.757 ± 0.052
10 µM, coculture fibroblast: H6231 | 0.865 ± 0.093 | 0.876 ± 0.041 | 0.804 ± 0.052 | 0.757 ± 0.047 | 0.709 ± 0.049 | 0.672 ± 0.053 | 0.611 ± 0.041 | 0.574 ± 0.048 | 0.526 ± 0.039
10 µM, coculture fibroblast: HADF | 0.8968 ± 0.0057 | 0.865 ± 0.018 | 0.837 ± 0.013 | 0.8131 ± 0.0018 | 0.7867 ± 0.0012 | 0.733 ± 0.013 | 0.725 ± 0.012 | 0.71 ± 0.032 | 0.658 ± 0.026
10 µM, coculture fibroblast: HCFa | 0.912 ± 0.013 | 0.855 ± 0.013 | 0.838 ± 0.014 | 0.832 ± 0.016 | 0.7875 ± 0.0059 | 0.755 ± 0.013 | 0.736 ± 0.0095 | 0.705 ± 0.018 | 0.662 ± 0.028
10 µM, coculture fibroblast: HCPF | 0.925 ± 0.035 | 0.847 ± 0.028 | 0.79 ± 0.022 | 0.773 ± 0.016 | 0.7195 ± 0.0065 | 0.6822 ± 0.0033 | 0.644 ± 0.015 | 0.61 ± 0.02 | 0.575 ± 0.025
10 µM, coculture fibroblast: HHSteC | 0.9337 ± 0.0025 | 0.899 ± 0.013 | 0.8616 ± 0.0052 | 0.823 ± 0.0089 | 0.784 ± 0.0089 | 0.7562 ± 0.002 | 0.7164 ± 0.0019 | 0.6837 ± 0.0014 | 0.6343 ± 0.0014
10 µM, coculture fibroblast: HMF | 0.964 ± 0.014 | 0.9 ± 0.013 | 0.8472 ± 0.0048 | 0.818 ± 0.011 | 0.775 ± 0.028 | 0.733 ± 0.039 | 0.686 ± 0.051 | 0.648 ± 0.054 | 0.613 ± 0.071
10 µM, coculture fibroblast: HPFa | 0.9699 ± 0.0096 | 0.9454 ± 0.0064 | 0.906 ± 0.015 | 0.894 ± 0.018 | 0.867 ± 0.044 | 0.818 ± 0.025 | 0.77 ± 0.018 | 0.729 ± 0.046 | 0.667 ± 0.026
10 µM, coculture fibroblast: HUF | 0.881 ± 0.017 | 0.799 ± 0.019 | 0.8129 ± 0.005 | 0.7064 ± 0.0012 | 0.6384 ± 0.00073 | 0.624 ± 0.015 | 0.562 ± 0.014 | 0.553 ± 0.024 | 0.521 ± 0.027
10 µM, coculture fibroblast: Hs5 | 0.912 ± 0.061 | 0.861 ± 0.05 | 0.849 ± 0.051 | 0.834 ± 0.034 | 0.805 ± 0.0092 | 0.77 ± 0.013 | 0.7279 ± 0.0043 | 0.7043 ± 0.0044 | 0.673 ± 0.024
10 µM, coculture fibroblast: Hs27A | 0.915 ± 0.0059 | 0.8817 ± 0.0049 | 0.849 ± 0.0088 | 0.83 ± 0.032 | 0.789 ± 0.038 | 0.72 ± 0.061 | 0.725 ± 0.048 | 0.706 ± 0.057 | 0.644 ± 0.053
10 µM, coculture fibroblast: Hs343T | 0.961 ± 0.014 | 0.88 ± 0.015 | 0.813 ± 0.018 | 0.788 ± 0.031 | 0.73 ± 0.047 | 0.692 ± 0.061 | 0.642 ± 0.091 | 0.6 ± 0.1 | 0.555 ± 0.11
10 µM, coculture fibroblast: WS1 | 0.807 ± 0.035 | 0.754 ± 0.047 | 0.767 ± 0.1 | 0.732 ± 0.098 | 0.711 ± 0.11 | 0.703 ± 0.1 | 0.662 ± 0.12 | 0.65 ± 0.14 | 0.62 ± 0.15
100 µM, coculture fibroblast: C12385 | 0.7973 ± 0.0016 | 0.81 ± 0.029 | 0.753 ± 0.081 | 0.79 ± 0.074 | 0.763 ± 0.045 | 0.751 ± 0.054 | 0.728 ± 0.051 | 0.726 ± 0.051 | 0.7 ± 0.07
100 µM, coculture fibroblast: H6013 | 0.936 ± 0.011 | 0.901 ± 0.032 | 0.888 ± 0.053 | 0.902 ± 0.054 | 0.838 ± 0.078 | 0.805 ± 0.078 | 0.796 ± 0.11 | 0.786 ± 0.11 | 0.752 ± 0.12
100 µM, coculture fibroblast: H6019 | 0.804 ± 0.0089 | 0.7951 ± 0.0052 | 0.7137 ± 0.0059 | 0.74 ± 0.017 | 0.709 ± 0.025 | 0.697 ± 0.027 | 0.664 ± 0.014 | 0.635 ± 0.0073 | 0.612 ± 0.029
100 µM, coculture fibroblast: H6076 | 0.928 ± 0.026 | 0.863 ± 0.022 | 0.8638 ± 0.0013 | 0.8648 ± 0.0028 | 0.8478 ± 0.0033 | 0.82676 ± 6.9e-05 | 0.83 ± 0.017 | 0.82 ± 0.024 | 0.819 ± 0.038
100 µM, coculture fibroblast: H6231 | 0.923 ± 0.041 | 0.87 ± 0.039 | 0.831 ± 0.03 | 0.797 ± 0.037 | 0.756 ± 0.032 | 0.739 ± 0.03 | 0.721 ± 0.013 | 0.687 ± 0.0073 | 0.6475 ± 0.0017
100 µM, coculture fibroblast: HADF | 0.911 ± 0.011 | 0.8951 ± 0.0049 | 0.8739 ± 0.0051 | 0.859 ± 0.0096 | 0.826 ± 0.016 | 0.764 ± 0.022 | 0.741 ± 0.0082 | 0.7123 ± 0.0071 | 0.645 ± 0.033
100 µM, coculture fibroblast: HCFa | 0.934 ± 0.016 | 0.915 ± 0.015 | 0.89004 ± 1.1e-05 | 0.8548 ± 0.0016 | 0.811 ± 0.012 | 0.7535 ± 0.0026 | 0.716 ± 0.0082 | 0.681 ± 0.027 | 0.609 ± 0.044
100 µM, coculture fibroblast: HCPF | 0.9349 ± 0.0059 | 0.867 ± 0.018 | 0.844 ± 0.035 | 0.85 ± 0.04 | 0.807 ± 0.045 | 0.785 ± 0.061 | 0.759 ± 0.056 | 0.726 ± 0.056 | 0.713 ± 0.053
100 µM, coculture fibroblast: HHSteC | 0.9374 ± 0.0038 | 0.942 ± 0.015 | 0.915 ± 0.012 | 0.8978 ± 0.0038 | 0.868 ± 0.02 | 0.849 ± 0.013 | 0.819 ± 0.054 | 0.804 ± 0.054 | 0.756 ± 0.079
100 µM, coculture fibroblast: HMF | 0.9045 ± 0.0075 | 0.836 ± 0.012 | 0.815 ± 0.029 | 0.804 ± 0.041 | 0.786 ± 0.057 | 0.762 ± 0.059 | 0.745 ± 0.061 | 0.729 ± 0.068 | 0.724 ± 0.072
100 µM, coculture fibroblast: HPFa | 0.961 ± 0.013 | 0.95 ± 0.027 | 0.928 ± 0.036 | 0.903 ± 0.039 | 0.882 ± 0.042 | 0.854 ± 0.041 | 0.812 ± 0.043 | 0.794 ± 0.064 | 0.749 ± 0.063
100 µM, coculture fibroblast: HUF | 0.8753 ± 0.0064 | 0.7871 ± 0.0075 | 0.8387 ± 0.0035 | 0.7711 ± 0.00093 | 0.746 ± 0.013 | 0.755 ± 0.028 | 0.722 ± 0.043 | 0.717 ± 0.048 | 0.707 ± 0.029
100 µM, coculture fibroblast: Hs5 | 0.899 ± 0.012 | 0.849 ± 0.032 | 0.834 ± 0.04 | 0.815 ± 0.031 | 0.781 ± 0.034 | 0.745 ± 0.04 | 0.726 ± 0.035 | 0.696 ± 0.043 | 0.687 ± 0.038
100 µM, coculture fibroblast: Hs27A | 0.93 ± 0.014 | 0.909 ± 0.011 | 0.894 ± 0.016 | 0.8735 ± 0.0084 | 0.823 ± 0.009 | 0.732 ± 0.019 | 0.777 ± 0.029 | 0.757 ± 0.05 | 0.714 ± 0.036
100 µM, coculture fibroblast: Hs343T | 0.9247 ± 0.0065 | 0.8496 ± 0.0059 | 0.8319 ± 0.0067 | 0.8207 ± 0.0063 | 0.7926 ± 0.0016 | 0.769 ± 0.012 | 0.7433 ± 0.0039 | 0.734 ± 0.011 | 0.716 ± 0.032
100 µM, coculture fibroblast: WS1 | 0.777 ± 0.018 | 0.774 ± 0.014 | 0.691 ± 0.009 | 0.736 ± 0.025 | 0.724 ± 0.016 | 0.704 ± 0.015 | 0.671 ± 0.03 | 0.642 ± 0.027 | 0.625 ± 0.016
